Data taken from article PMC10359629.
For some of these results: No signal at the amounts used counts as a negative. Protein sequences can lack the tags named with them. For some of these results: Construct, isoform or probe ends are uncertain for at least one entry.

Experiments:
[1] = biological target: T1, DinB-PAD (Escherichia coli) (UniProt Q47155); assay: NMR titration; conditions: NMR titrations: NMR buffer (composition in Supplementary Table S2, not fully given), 298 K; recombinant protein; residues 228-351; protein details: His6-SUMO, cleaved with SenP1
T1 sequence (looked up): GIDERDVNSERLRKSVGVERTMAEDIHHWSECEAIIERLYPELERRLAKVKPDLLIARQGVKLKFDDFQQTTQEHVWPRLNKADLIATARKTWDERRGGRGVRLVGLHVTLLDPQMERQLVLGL

[2] = biological target: T2, DinB (DNA polymerase IV) (Escherichia coli) (UniProt Q47155); assay: BLI; conditions: 10 mM MgSO4; BLI: 50 mM KPi pH 6.5, 50 mM NaCl, 10 mM MgSO4, 1 mM TCEP, 303 K; recombinant protein; residues 1-351; protein details: N-terminal His6
T2 sequence (looked up): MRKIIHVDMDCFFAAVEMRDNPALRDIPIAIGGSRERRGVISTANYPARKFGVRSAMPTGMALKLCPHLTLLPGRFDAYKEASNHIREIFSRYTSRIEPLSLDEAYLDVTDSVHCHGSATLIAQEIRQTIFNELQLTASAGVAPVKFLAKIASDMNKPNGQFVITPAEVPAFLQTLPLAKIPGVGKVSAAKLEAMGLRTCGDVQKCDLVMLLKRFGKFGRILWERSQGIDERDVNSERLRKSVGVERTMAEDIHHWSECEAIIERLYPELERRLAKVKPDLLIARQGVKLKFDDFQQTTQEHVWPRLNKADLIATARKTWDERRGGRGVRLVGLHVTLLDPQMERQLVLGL

[3] = biological target: T1, DinB-PAD (Escherichia coli); assay: BLI; conditions: 10 mM MgSO4; BLI: 50 mM KPi pH 6.5, 50 mM NaCl, 10 mM MgSO4, 1 mM TCEP, 303 K; recombinant protein; residues 228-351; protein details: His6-SUMO, cleaved with SenP1
[4] = biological target: T3, DinBΔPAD (Escherichia coli) (UniProt Q47155); assay: BLI; conditions: 10 mM MgSO4; BLI: 50 mM KPi pH 6.5, 50 mM NaCl, 10 mM MgSO4, 1 mM TCEP, 303 K; recombinant protein; residues 1-230
T3 sequence (looked up): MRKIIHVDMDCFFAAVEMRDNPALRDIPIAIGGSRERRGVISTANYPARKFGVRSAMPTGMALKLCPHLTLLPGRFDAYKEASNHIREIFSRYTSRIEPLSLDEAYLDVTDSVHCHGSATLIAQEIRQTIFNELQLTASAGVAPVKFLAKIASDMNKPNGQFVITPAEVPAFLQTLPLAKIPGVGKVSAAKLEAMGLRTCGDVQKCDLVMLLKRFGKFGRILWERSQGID

| Sequence | binding result [1] | Kd [2] [nM] | binding result [3] | Kd [4] [nM] |
| --- | --- | --- | --- | --- |
| TCTAGGGTCCTAGGACCC (double strand) [18mer dsDNA] | no binding |  |  |  |
| TCTAGGGTCCTAGGACCC (double strand) [biotin-18mer dsDNA (BLI)] |  | 5.3 | no binding | 2 |
